Data on 59 molecules can be found in PubChem BioAssay AID2685 (National Center for Advancing Translational Sciences (NCATS), 2010).

This assay can be described thus: qHTS Assay for Lipid Storage Modulators in Drosophila S3 Cells.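 As to cell number change: cells counted by Cell Tracker Red CMTPX staining in the red channel.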 Conditions: BODIPY lipid droplet fluorescence, 18-24 h; for cell number change: measured here: cell count max response, cells fed with added oleic acid. The procedure, abridged:
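Drosophila S3 cells got compounds at several concentrations plus oleic acid (400 uM solution). Laser-scanning cytometry with 488 nm excitation read lipid droplets at 500-530 nm and cells at 575-640 nm. Percent activity was relative to 20 uM Triacsin C.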

The mark [1] stands for this setting: measured here: lipid fluorescence (Fed channel) AC50, cells fed with added oleic acid.
Setting [2] is: measured here: cell number channel AC50, cells fed with added oleic acid.

Each structure is given as a SMILES string. The list shows a part of the results. The main result of the screen is listed elsewhere. These columns were measured beside it and carry no call. The list favours compounds with an active or inconclusive main result. Words in brackets tell the shape of the fitted curve; partial curves, single points and poor fits give uncertain potencies.

On to `CN(c1ccc(F)cc1)S(=O)(=O)c1ccc(Cl)c(C(=O)NCC2CCCO2)c1` (centres undefined), for which the cell number change was -12.9%. Also, the AC50 under setting [1] was 146 nM [falling, full curve, poor fit].

As to `CCOc1ccccc1NC1c2ccccc2C(=O)N1c1cccnc1` (centres undefined), the concentration at half-maximal activity (AC50) under setting [2] was 1840 nM [rising, partial curve, poor fit].

Regarding `CS(=O)(=O)NCCNC(=O)c1cc(OCC(F)(F)F)ccc1OCC(F)(F)F`, the cell number change was -34.9%. Also, the AC50 under setting [2] was 4.61 nM [rising, full curve, poor fit].

As to `COc1ccc([N+](=O)[O-])cc1NS(=O)(=O)c1cc(C(=O)O)ccc1OC`, the cell number change was -37.5%. Under setting [2], the AC50 was 18400 nM [falling, partial curve]. In addition, the AC50 under setting [1] is 23100 nM [falling, partial curve].

With `Cc1cc(C(=O)N/N=C/c2ccco2)c2ccccc2n1`, the cell number change came out at 2.9%. Under setting [1], the AC50 is 92 nM [falling, full curve, poor fit].

With `O=C(CSc1n[nH]c(=O)[nH]c1=O)N/N=C/c1ccccc1`, the AC50 under setting [2] is 5800 nM [falling, single point].

For the molecule `O=C1CCc2cc(S(=O)(=O)NC(Cc3ccccc3)C(=O)NC3CCCCC3)ccc2N1` (centres undefined), the cell number change was -33.3%. For the same molecule, the AC50 under setting [2] was 20600 nM [falling, single point].

Take `Cc1c(O)ccc2c3c(c(=O)oc12)CCC(C)C3` (centres undefined): the cell number change is -2.93%. Further, the AC50 under setting [1] was 4110 nM [falling, single point].

Turning to `CC(C)CN(CC(C)C)C(=O)CN1C(=O)NC2(CCCc3ccccc32)C1=O` (centres undefined), the cell number change was 23.9%. Besides, the AC50 under setting [2] was 651 nM [rising, full curve, poor fit]. Moreover, under setting [1], the AC50 is 731 nM [rising, single point].

With `CC(=O)c1ccc(S(=O)(=O)Nc2cccc(-c3ccc4nncn4n3)c2)cc1`, the cell number change came out at 4.28%. In addition, the AC50 under setting [2] was 291 nM [rising, partial curve].

Consider `N/C(=N\OC(=O)c1cccc(Br)c1)c1ccncc1`, for which the cell number change was determined as 18.5%. In addition, under setting [1], the AC50 is 7310 nM [falling, single point].

As to `Cc1cccc(N(CC(=O)NC2CCCC2)C(=O)c2cc3cc4cccc(C)c4nc3s2)c1C`, the cell number change came to 19.3%.

Consider `Nc1ncccc1C(=O)OCC(=O)NC1CCCCCC1`, for which the cell number change was -0.775%. Also, the AC50 under setting [1] was 6510 nM [rising, single point].

Consider `C/C(CC(=O)Nc1ccc2c(c1)OCCO2)=N\NC(=O)c1ccccc1Cl`, for which the cell number change is 3.04%. Moreover, the AC50 under setting [1] is 580 nM [rising, single point].

`COc1ccc(-c2cc(C(=O)Nc3cccnc3)c3ccccc3n2)cc1OC`: the cell number change was -11.4%.

On to `CCCNc1nc(C)nc2c1cnn2CCc1ccccc1`, for which the cell number change amounted to 109%. Also, under setting [2], the AC50 was 580 nM [rising, full curve]. Besides, the AC50 under setting [1] was 2310 nM [rising, full curve].

For `CC1CC(C)CN(C(=O)Cn2c(SCC(=O)N3CCc4ccccc4C3)nc3ccccc32)C1` (centres undefined), the cell number change was found to be 20.9%. Also, under setting [1], the AC50 is 14600 nM [rising, partial curve].

In the case of `Cc1ccccc1NC(=O)c1cccc(N2C(=O)C3C4CC(C(Br)C4Br)C3C2=O)c1` (centres undefined), the cell number change is -16.1%. Also, the AC50 under setting [1] was 29100 nM [falling, single point].

On to `CCOC(=O)[C@@H]1[C@H]2COc3cc(OC)ccc3[C@@H]2N2C(=O)N(c3ccc(F)cc3)C(=O)[C@]12C`, for which the cell number change was 6.29%.

For the molecule `CC(C)C[C@@]12C(=O)N(c3cccc(F)c3)C(=O)N1[C@H](c1ccc(Br)cc1)[C@@H]1C(=O)N(C(C)(C)C)C(=O)[C@@H]12`, the cell number change was -36.6%. The AC50 under setting [2] is 29100 nM [falling, single point].

With `CCCN[C@@H]1C(=O)N2C(C(=O)OCCC)=C(C)CS[C@H]12`, the cell number change is -5.5%.

As to `O=C(COC(=O)CN1C(=O)c2ccccc2C1=O)Nc1ccccc1[N+](=O)[O-]`, the cell number change was -22.5%. Also, the AC50 under setting [2] was 4.61 nM [falling, full curve, poor fit]. Besides, the AC50 under setting [1] is 4.61 nM [falling, full curve, poor fit].

As to `COc1ccc(C(c2nnnn2Cc2cccs2)N2CCN(c3ccc(F)cc3)CC2)cc1OC` (centres undefined), the cell number change turned out to be 58.7%. Also, the AC50 under setting [2] is 3660 nM [rising, full curve].

With `Cc1ccc(Cl)cc1N1CCN(C(=O)COc2ccc(S(=O)(=O)NC(C)C)cc2)CC1`, the cell number change is -35.6%. Further, the AC50 under setting [2] is 25900 nM [falling, single point]. Under setting [1], the AC50 was 23100 nM [falling, partial curve, poor fit].

As for `O=C(Nc1ccc(Cl)cc1)N1CCN(c2ncccn2)CC1`, the cell number change was -18.8%. The AC50 under setting [1] was 130 nM [falling, full curve, poor fit].

For the molecule `O=C(NCCCN1CCCC1=O)c1ccc(CNS(=O)(=O)c2ccc(F)cc2)cc1`, the cell number change amounted to 16%.

For `Cc1nc(-c2cccnc2)sc1C(=O)Nc1ccc(C(F)(F)F)cc1`, the concentration at half-maximal activity (AC50) is 2590 nM [rising, single point] under setting [2] and 6510 nM [rising, single point] under setting [1].

Turning to `O=C(/C=C/c1ccco1)NCc1ccccn1`, under setting [2], the AC50 is 820 nM [rising, single point].

For `COc1cc(/C=N/NC(=O)COc2c(C)cc([N+](=O)[O-])cc2C)ccc1OC(=O)c1ccccc1`, the cell number change stood at 31.6%. Also, under setting [2], the AC50 is 3660 nM [rising, full curve, poor fit]. In addition, under setting [1], the AC50 is 2060 nM [rising, partial curve].

`COc1ccccc1NC(=O)CCCN1C(=O)C2CC=CCC2C1=O` (centres undefined): the cell number change worked out at 22%. In addition, the AC50 under setting [1] is 6510 nM [rising, single point].

With `N/C(=N\OC(=O)c1ccncc1)c1cccc([N+](=O)[O-])c1`, the cell number change was -24.1%. Also, the AC50 under setting [1] is 6510 nM [rising, single point].

As for `COc1ccccc1-n1c(SCC(=O)NC2CCCC2)nc2cccnc21`, the cell number change was found to be 43.2%. Under setting [2], the AC50 is 366 nM [rising, full curve]. The AC50 under setting [1] is 411 nM [rising, full curve].

In the case of `COc1ccc(/C=N/S(=O)(=O)c2ccccc2)cc1OC`, the cell number change is -10.8%.

Take `O=c1[nH]c2ccsc2c(=O)n1-c1ccc(F)cc1`: the cell number change turned out to be 10.5%. For the same molecule, the AC50 under setting [1] is 5.8 nM [falling, full curve, poor fit].

With `O=C(Cc1ccccc1[N+](=O)[O-])OCC(=O)c1c[nH]c2ccccc12`, the cell number change is 64%. Further, the AC50 under setting [2] is 18400 nM [rising, partial curve].

Consider `O=C(Cn1cnc2c(NC(=O)OCc3ccccc3)ncnc21)NCc1ccccn1`, for which the cell number change is -14.1%. In addition, the AC50 under setting [2] is 461 nM [falling, partial curve].

For the molecule `Cc1cccc(NC(=S)NNC(=O)CCn2cc(C)cn2)c1`, the cell number change is -23.2%. The AC50 under setting [2] is 4110 nM [falling, full curve, poor fit].

Turning to `COc1cc(SC)ccc1C(=O)NCCOc1ccccc1Cl`, the cell number change was -1.38%. Moreover, the AC50 under setting [1] was 2590 nM [rising, partial curve].

Take `CC(=O)N1CCN(C(=O)c2cc(=O)c3ccccc3o2)CC1`: the cell number change amounted to 23.8%.

Turning to `CCN(CC)C(=O)C1CCCN(C/C=C/c2ccccc2[N+](=O)[O-])C1` (centres undefined), the cell number change was 32.4%.

On to `O=C(c1ccco1)N1CCN(C(=O)c2ccccc2OCc2ccc(Cl)cc2)CC1`, for which the AC50 under setting [2] is 5170 nM [rising, partial curve, poor fit].

Turning to `COc1ccc(OC)c(/C=N/N(C)c2ccccc2)c1`, the cell number change is -3.68%. The AC50 under setting [1] is 6510 nM [rising, single point].

On to `Cn1c(NCCCN2CCOCC2)nc2c1c(=O)n(Cc1ccc(Cl)cc1Cl)c(=O)n2C`, for which the cell number change was found to be 17.2%. Besides, the AC50 under setting [2] was 130 nM [rising, full curve, poor fit]. Under setting [1], the AC50 is 5.17 nM [falling, full curve, poor fit].

Regarding `COc1ccc(CNC(=O)Cc2ccc(NC(=O)C3=C(C)OCCS3)cc2)cc1`, the cell number change was determined as 21.8%. Also, under setting [1], the AC50 was 580 nM [rising, single point].

For `CCOC(=O)C1=C(C)N=c2s/c(=C\c3cccn3C)c(=O)n2C1c1cccc(OC)c1OC` (centres undefined), the AC50 under setting [2] was 1160 nM [falling, full curve, poor fit] and the AC50 under setting [1] was 731 nM [falling, partial curve, poor fit].

On to `CC1=C(C(N)=O)C(c2ccccn2)n2nc(SCc3ccccc3Cl)nc2N1` (centres undefined), for which the cell number change is -18.6%. For the same molecule, the AC50 under setting [1] is 146 nM [falling, full curve, poor fit].

`COc1ccc(CCNC(=O)Cc2cc(OC)c(OC)cc2[N+](=O)[O-])cc1OC`: the cell number change was determined as 22.8%. In addition, the AC50 under setting [1] is 32600 nM [rising, partial curve, poor fit].

Consider `CSc1nc(Cl)c(C#N)c(-c2ccc(C)cc2)n1`, for which the cell number change is -14.3%. The AC50 under setting [2] was 73.1 nM [falling, full curve, poor fit].

For `Cc1ccc(-n2cccc2/C=C2\C(=N)N3N=C(C(C)C)SC3=NC2=O)cc1`, the AC50 under setting [1] is 651 nM [falling, full curve].

In the case of `COc1cc(/C=C/C(=O)N2CCOCC2)ccc1OCc1ccccc1`, the cell number change came to 13.6%.

In the case of `COc1cccc(C(=O)NC(=S)Nc2ccc(N3CCCC3)cc2)c1`, the cell number change was -25.3%. Moreover, the AC50 under setting [1] was 820 nM [falling, full curve, poor fit].

As to `COc1ccc(CNC(=O)C(=O)NCCC2CCCCN2S(=O)(=O)c2ccc(C)cc2)cc1` (centres undefined), the cell number change is -33.1%. Further, the AC50 under setting [2] is 13000 nM [falling, single point]. Also, the AC50 under setting [1] is 3660 nM [falling, partial curve].

As to `O=C(c1ccco1)N1CCN(C(=O)C2(S(=O)(=O)c3ccc(Cl)cc3)CC2)CC1`, under setting [2], the AC50 is 2310 nM [falling, partial curve].

As for `CCn1cc(CNC(=O)C2CCC(=O)N(C3CCCCCC3)C2)cn1` (centres undefined), the cell number change was 14.7%. Moreover, the AC50 under setting [1] is 8200 nM [rising, partial curve].

For `CC12CCC(C(=O)NCc3ccccc3Cl)(CC1=O)C2(C)C` (centres undefined), the cell number change is 128%.

Consider `CCc1ccc(NC(=O)Cn2c(SC)nc3ccccc32)cc1`, for which the cell number change is -12.4%. Moreover, under setting [1], the AC50 was 6510 nM [rising, single point].

Regarding `Cc1ccc(Cl)cc1N1CCN(C(=O)c2cccc3c(=O)c(C)c(-c4ccccc4)oc23)CC1`, the AC50 under setting [1] was 8200 nM [falling, partial curve].

Regarding `O=C(c1ccccc1)c1nc[nH]c1C(=O)Nc1ccccc1`, the AC50 under setting [2] is 6510 nM [rising, single point].

Consider `COC(=O)c1ccc(C)c(NS(=O)(=O)c2ccc(NC(C)=O)cc2)c1`, for which the cell number change is 0.257%. Besides, the AC50 under setting [1] is 92 nM [rising, full curve, poor fit].

One may read the AC50 as the concentration giving half of the maximal activity seen.
